Measurements reported in paper PMC8566228.
Results are given in words; binding and its absence hold for the method and conditions named. Binding seen in cells or lysates may run through a third protein. Some results given as binding are weak or reduced against the parent protein; the word gives no strength.

Target: Zonula occludens-1 (rat (endogenous in IEC-6))
Assay: co-IP; IEC-6 lysate (1% NP40, 20 mM Tris, 150 mM NaCl, 2 mM EDTA, pH 7.4); IP antibody on protein G Sepharose, 500 ug protein extract, 1 h; western blot; cells with or without dexamethasone and/or SP-D; each protein in turn as bait

- binding: binds
B1: heat-shock protein APG2 (protein, UniProt O88600 1-840)
chain: MSVVGIDLGFQSCYVAVARAGGIETIANEYSDRCTPACVSFGPKNRSVGAAAKSQVISNAKNTVQGFKRFHGRAFSDPFVEAEKSNLAYDIVQLPTGLTGIKVTYMEEERNFTTEQVTAMLLSKLKETAESVLKKPVVDCVVSVPSFYTDAERRSVMDATQIAGLNCLRLMNETTAVALAYGIYKQDLPALEEKPRNVVFVDMGHSAYQVSVCAFNRGKLKVLATAFDTTLGGRKFDEVLVNHFCEEFGKKYKLDIKSKVRALLRLSQECEKLKKLMSANASDLPLSIECFMNDIDVSGTMNRGKFLEMCDDLLARVEPPLRSILDQSKLKKEDIYAVEIVGGATRIPAVKEKISKFFGKELSTTLNADEAVTRGCALQCAILSPAFKVREFSITDVVPYPISLRWNSPAEEGSSDCEVFPKNHAAPFSKVLTFYRKEPFTLEAYYSSPQDLPYPDPAIAQFSVQKVTPQSDGSSSKVKVKVRVNVHGIFSVSSAALVEVHKSEESEEPMETDQNAKEEEKMQVDQEEPHTEEQQPQTPAENKAESEEMETSQAGSKDKKMDQPPQAKKAKVKTSTVDLPIESQLLWQLDREMLGLYTENEGKMIMQDKLEKERNDAKNAVEEYVYEMRDKLSGEYEKFVSEDDRNNFTLKLEDTENWLYEDGEDQPKQVYVDKLAELRTLGQPIKTRFQESEERPKLFEELGKQIQQYMKVISSFKNKEDQYEHLDAADMTKVEKSTNEAMEWMNSKLNLQNKQSLTADPVVKTKEIEAKIKELTNICSPIISKPKPKVEPPKEEPKHAEQNGPVDGQGDNPGTQAAEHGADTAVPSDGDKKLPEMDID
